From paper PMC5380948
These are yes or no findings as the source states them, for the method shown. Binding seen in cells or lysates may run through a third protein. Where a sequence is shown, tags or fusion partners need not be part of it.

Target: T1, c-Myc-tagged MKRN2 (makorin ring finger protein 2) (mouse) (UniProt Q9ERV1)
T1 sequence: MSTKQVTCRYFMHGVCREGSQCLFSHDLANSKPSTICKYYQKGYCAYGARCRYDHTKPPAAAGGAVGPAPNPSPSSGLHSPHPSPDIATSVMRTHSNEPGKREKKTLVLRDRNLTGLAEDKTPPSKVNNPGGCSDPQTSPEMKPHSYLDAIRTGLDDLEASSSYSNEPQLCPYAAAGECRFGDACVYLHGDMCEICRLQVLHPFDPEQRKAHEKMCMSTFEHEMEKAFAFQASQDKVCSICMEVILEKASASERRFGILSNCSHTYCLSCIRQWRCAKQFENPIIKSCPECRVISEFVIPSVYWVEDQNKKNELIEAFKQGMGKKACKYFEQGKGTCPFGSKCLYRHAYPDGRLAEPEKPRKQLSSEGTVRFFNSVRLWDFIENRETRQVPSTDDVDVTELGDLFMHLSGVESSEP
Assay: co-IP; 293T cells co-transfected; lysed in 0.5% NP-40, 250 mM NaCl, 10 mM Tris pH 8.0; precipitated with anti-c-Myc antibody-conjugated agarose, washed four times; immunoblot with anti-His or anti-FLAG

binding: no binding
Substance: His-tagged PDLIM2 mutant lacking the LIM domain (∆LIM) (domain or fragment)
